According to patent US20030147847A1 (IMMUNEX, published 2003):
No constants are given. Whether binding was seen depends on the method and setting. Some entries that bind do so weakly or less than the wild type. Tags and fused reporters may be left off the sequences shown.

By UniProt entry, the sequences of proteins in these tests, tags left out. Where a name states a change or a piece, a line headed by the entry shows the natural chain unless it says otherwise.
UniProt Q9BZM6: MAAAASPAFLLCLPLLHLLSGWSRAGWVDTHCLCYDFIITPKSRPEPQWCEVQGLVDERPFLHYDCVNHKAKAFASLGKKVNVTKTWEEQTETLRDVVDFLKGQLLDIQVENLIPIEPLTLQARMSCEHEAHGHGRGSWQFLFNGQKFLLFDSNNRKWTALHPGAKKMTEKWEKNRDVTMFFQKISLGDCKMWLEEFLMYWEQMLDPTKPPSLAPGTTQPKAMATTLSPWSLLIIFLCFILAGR

Assays:
[1] = biological target: ULBP-1 polypeptide (human) (UniProt Q9BZM6); assay: expression cloning by binding of UL16-Fc
[2] = biological target: T1, NKG2D/Dap10 on transfected 293E cells (UniProt P26718 1-216; Q9UBK5 19-93); assay: flow cytometry on transfected 293 EBNA cells
T1 construct: whole, on cells; Co-expressed on 293 EBNA (293E) cells from the pDC409 vector; also called NKG2D+FLAG tagged Dap10
T1 sequence 1: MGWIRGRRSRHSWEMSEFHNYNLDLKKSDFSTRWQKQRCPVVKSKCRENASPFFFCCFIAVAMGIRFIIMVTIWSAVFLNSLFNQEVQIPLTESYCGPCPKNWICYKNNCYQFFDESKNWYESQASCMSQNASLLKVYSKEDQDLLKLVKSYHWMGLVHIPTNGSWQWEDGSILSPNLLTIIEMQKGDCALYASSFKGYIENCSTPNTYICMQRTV
T1 sequence 2: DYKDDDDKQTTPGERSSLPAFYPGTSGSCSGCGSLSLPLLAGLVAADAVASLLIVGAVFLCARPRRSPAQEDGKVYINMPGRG

[3] = biological target: T1, NKG2D/Dap10 on transfected 293E cells; assay: flow cytometry on transfected 293 EBNA cells (Example 7)
[4] = biological target: T2, Full length UL16 on transfected 293 EBNA cells (human cytomegalovirus) (UniProt P16757); assay: flow cytometry on 293 EBNA cells transfected with full length UL16 (control)
T2 sequence: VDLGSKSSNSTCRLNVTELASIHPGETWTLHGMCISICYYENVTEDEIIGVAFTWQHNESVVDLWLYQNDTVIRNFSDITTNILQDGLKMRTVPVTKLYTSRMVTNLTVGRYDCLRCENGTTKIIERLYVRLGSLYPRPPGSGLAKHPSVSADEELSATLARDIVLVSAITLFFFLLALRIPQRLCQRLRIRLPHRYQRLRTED

B1: UL16-Fc fusion protein (Fc fusion)
chain: VDLGSKSSNSTCRLNVTELASIHPGETWTLHGMCISICYYENVTEDEIIGVAFTWQHNESVVDLWLYQNDTVIRNFSDITTNILQDGLKMRTVPVTKLYTSRMVTNLTVGRYDCLRCENGTTKIIERLYVRLGSLYPRPPGSGLAKHPSVSADEELSA
notes: extracellular domain; not shown: IgG1 Fc (mutein form), as described for OX40-Fc (Baum et al., EMBO J. 13:3992-4001, 1994); the mutein is described in p-
- binding [1]: binds

B2: ULBP3/Fc (Fc fusion)
chain: DAHSLWYNFTIIHLPRHGQQWCEVQSQVDQKNFLSYDCGSDKVLSMGHLEEQLYATDAWGKQLEMLREVGQRLRLELADTELEDFTPSGPLTLQVRMSCECEADGYIRGSWQFSFDGRKFLLFDSNNRKWTVVHAGARRMKEKWEKDSGLTTFFKMVSMRDCKSWLRDFLMHRKKRLEPTAPPTMAPG
notes: That entry lacks the first five residues of the leader and still holds the rest of the signal peptide and the GPI signal; not shown: Fc portion of ULBP3/Fc is not described
- binding [2]: binds
- binding [3]: binds

B3: MICA/Fc (Fc fusion, UniProt Q29983 24-307, looked up)
chain: EPHSLRYNLTVLSWDGSVQSGFLTEVHLDGQPFLRCDRQKCRAKPQGQWAEDVLGNKTWDRETRDLTGNGKDLRMTLAHIKDQKEGLHSLQEIRVCEIHEDNSTRSSQHFYYDGELFLSQNLETKEWTMPQSSRAQTLAMNVRNFLKEDAMKTKTHYHAMHADCLQELRRYLKSGVVLRRTVPPMVNVTRSEASEGNITVTCRASGFYPWNITLSWRQDGVSLSHDTQQWGDVLPDGNGTYQTWVATRICQGEEQRFTCYMEHSGNHSTHPVPSGKVLVLQSHW
notes: not shown: Fc portion not described
- binding [3]: binds

B4: MICB/Fc (Fc fusion, UniProt Q29980 23-309, looked up)
chain: AEPHSLRYNLMVLSQDGSVQSGFLAEGHLDGQPFLRYDRQKRRAKPQGQWAENVLGAKTWDTETEDLTENGQDLRRTLTHIKDQKGGLHSLQEIRVCEIHEDSSTRGSRHFYYDGELFLSQNLETQESTVPQSSRAQTLAMNVTNFWKEDAMKTKTHYRAMQADCLQKLQRYLKSGVAIRRTVPPMVNVTCSEVSEGNITVTCRASSFYPRNITLTWRQDGVSLSHNTQQWGDVLPDGNGTYQTWVATRIRQGEEQRFTCYMEHSGNHGTHPVPSGKALVLQSQRTD
notes: also called MICB1/FC; not shown: Fc portion not described
- binding [4]: binds
